Publication PMC10163288
The other results are listed elsewhere or left out.

B1: il2ra_site2_3nfp_normal_mot_HHH_b1_02297_000000279_0001_41_58_H_._HHH_b2_01197_0001_0000500018_0000001_0 (protein)
chain: SSSSDEEEYERRVEELLEEAEKISDEREVERLLSEAALLAYEARDFELFALVNEVLARLVSSSSS
B2: il2ra_site2_2erj_normal_mot_HHH_b2_03093_af2_000000119_0001_18_34_H_._HHH_b1_06904_af2_0001_0000100005_0000001_0 (protein)
chain: SSSSSEEEARELIEEAKELIENGNPEKAWEVLRRAAEIAWREGNFELFSEIAELLHELARSSSSS
B3: il2ra_site2_2erj_normal_mot_HHH_b2_03093_af2_000000119_0001_18_34_H_._HHH_b2_06007_af2_0001_0000300012_0000001_0 (protein)
chain: SSSSSEEEEVEKLLKEVEELQKEGDEEKAEEVLRRAAELAWRINNFELFSEIAELLRKLGSSSSS
B4: il2ra_site1_1z92_normal_mot_74bb627b62bb877a56547cee6c7a6e54_0001_000000029_0001_1_13_H_._HHH_b1_02999_0001_0000400041_0000001_0 (protein)
chain: SSSSNEEYQLAVEIVSRLAAEFGLDWEQLKELDRLAAELVARGYSPEEIEEILEELAERLSSSSS
B5: il2ra_site1_3nfp_sap_11_mot_HHH_b1_07180_af2_000000260_0001_1_19_H_._HHH_b2_01685_af2_0001_0000200004_0000001_0_0001_af2pred_0001_af2pred (protein)
chain: SSSTSEEEARRMRELMELIRELSKRGDREVAKELFKLLAEALRKGDPEILEEALELARRRLSSSS
B6: il2ra_site1_3nfp_normal_mot_0eddeacbb14b769e73e254714f31e2f9_0001_af2_000000052_0001_37_51_H_._HHH_b2_01980_0001_0000100001_0000001_0 (protein)
chain: SSSSSSDEEEVERLLEEAKHIPDPREAAKLLHEAFRVAAETKNAELADLIYEVMREIISSSSSSS
B7: il2ra_site2_3nfp_sap_18_mot_HHH_b1_05606_000000030_0001_23_39_H_._f72021f8cb70fb76a13a12d6924f0047_0001_0001_0000200014_0000001_0_0001 (protein)
chain: SSSSDEEHFIEQLLAQAKFLVERLEDPEERERLEELIEELEREGDPRIAEELARLVSEIISSSSS
B8: il2ra_site1_2b5i_normal_mot_HHH_b1_02271_000000068_0001_1_16_H_._HHH_b1_04984_af2_0001_0000400034_0000001_0_af2pred_dldesign_0_af2pred (protein)
chain: SSSSSDPEAEVAALVARARALKAAGRVREALELLDEAAKLLDENDMEEKLAEVEALAKSLSSSSS
B9: il2ra_site2_3nfp_sap_19_mot_HHH_b1_06589_000000230_0001_37_50_H_._HHH_b1_05602_af2_0001_0000400008_0000001_0_0001 (protein)
chain: SSSSSDFKFEVAVEYAKAAIKLRNDPELLREVEELEEEYKEEGDPRYLEEILRIAAEMAHSSSSS
B10: il2ra_site1_1z92_sap_25_mot_HHH_b2_05274_af2_000000237_0001_23_40_H_._1ea7efed693413ff70a20a74b84a9d1c_0001_1_0001_0000200019_0000001_0_0001 (protein)
chain: DEEDEEEAEELAGGDPELEALILDALRTLKLGIPPKAIEIVLEDAAKRDGIPPEKVEEALRLAEP
B11: il2ra_site2_2erj_normal_mot_c2bf78bdce995293a161f7082e24b401_0001_af2_000000082_0001_17_32_H_._HHH_b1_07967_0001_0000400009_0000001_0 (protein)
chain: SSSSDWLERLYRLANELLHASHNRDEEEFEEVYEEIRRLVEESQSEAAREILELIQEEFEGSSSS
B12: il2ra_site2_2erj_normal_mot_HHH_b1_04373_af2_000000118_0001_18_33_H_._HHH_b2_02528_af2_0001_0000400022_0000001_0 (protein)
chain: SSSSSEEEERVRELLEEARELHEEGNLEEVYRLAVEALRIASENNDQELIELVAKVVRELSSSSS
B13: il2ra_site2_3nfp_sap_22_mot_HHH_b2_08245_000000023_0001_41_55_H_._HHH_b2_07283_0001_0000300027_0000001_0_0001 (protein)
chain: SSSSDVEERIEELLKEIEELLEKGDPEEAERLLLEVALLAWETGDFEAFAAVTRLLERVQSSSSS
B14: il2ra_site1_2b5i_normal_mot_HHH_b1_08075_000000186_0001_43_57_H_._HHH_b2_05789_0001_0000400011_0000001_0 (protein)
chain: SSSSSSRSELTKEALELLRKAQKIEDEEEVRELLEEALELAREGNTRSLVIMLETALEALSSSSS
B15: il2ra_site2_2erj_normal_mot_HHH_b2_00484_af2_000000139_0001_42_55_H_._HHH_b1_05539_af2_0001_0000300014_0000001_1 (protein)
chain: SSSSSEIELAAEASARAIELFLNGNPEEAERLLEEVLEELQELNNETAVRYVEHALRHIRESSSS
B16: il2ra_site1_2b5i_sap_4_mot_HHH_b1_04602_000000166_0001_1_19_H_._HHH_b1_05136_af2_0001_0000100001_0000001_0_0001_af2pred_dldesign_0_af2pred (protein)
chain: SSSSSSEAERIAEEAIEEAKKLKDVREALKLLEAAHKEVSALGDDEAADRIEEFAKELLKSSSSS
B17: il2ra_site2_2erj_sap_15_mot_ems_3hC_936_0002_000000155_0001_4_19_H_._HHH_b1_03120_0001_0000500021_0000001_0_0001 (protein)
chain: SSSSSEEEAQELYEEFEELLEKGDDHALSEVLARLMELAKKYRDELAHRLAWELLRLNLNSSSSS
B18: il2ra_site2_2erj_normal_mot_af86707857d369f3e1d85dcabc5f9321_0001_000000171_0001_14_29_H_._HHH_b2_02620_0001_0000200010_0000001_0_af2pred_0001_af2pred (protein)
chain: SSSSDLEEEVRRLLEEIEELIKRGDEEEALNLLLEAIELAAKANNEELLEEIARLARELQRSSSS
B19: il2ra_site2_3nfp_normal_mot_HHH_b2_07946_000000046_0001_20_36_H_._HHH_b2_02452_af2_0001_0000100002_0000001_0 (protein)
chain: SSSSSSEEEEERVEELLEEAKKIEDPEEVKKLLREATNLAYKLNNFELFALVADALSQLYSSSSS
B20: il2ra_site1_2b5i_sap_20_mot_HHH_b1_01934_af2_000000023_0001_42_56_H_._317e649a6280ec284eb7dfe5badee235_0001_af2_0001_0000600013_0000001_0_0001_af2pred_dldesign_ … (protein)
chain: SSSSSKEEIKKEAEELIEELKKKGYNLPLRILEFALKEIEETNSEKYYEQLKKLIEKIKKSSSSS
B21: il2ra_site2_2erj_normal_mot_39ed66e5fba071e4f274ea7f2cf018e6_0001_000000286_0001_17_31_H_._HHH_b2_03101_af2_0001_0000900014_0000001_0_af2pred_0001_af2pred (protein)
chain: SSSSDLEERLEETVEELVKEFNLSEEQKKLLEAIAELLLEAGFSEELAEEWLRRIAERLGSSSSS
B22: il2ra_site2_3nfp_sap_16_mot_HHH_b1_06613_af2_000000098_0001_23_40_H_._HHH_b2_05266_af2_0001_0000600014_0000001_1_0001 (protein)
chain: SSSSDEEAEELREEAEKAAEEGDPEEALELLLEAASIAWRLNDEELFAKISELAHEILRRRSSSS
B23: il2ra_site1_1z92_sap_12_mot_HHH_b1_08207_af2_000000294_0001_43_57_H_._495ec863fae791885bcf86a35e6e9113_0001_af2_0001_0000500015_0000001_0_0001_af2pred_0001_af2p … (protein)
chain: SSSSSLEHSLRLAVEILVKLAGLSEEQEKELEELVRELVERGVSFHEALRILSRLAHELLSSSSS
B24: il2ra_site2_3nfp_normal_mot_HHH_b2_06150_000000217_0001_39_53_H_._HHH_b1_06048_0001_0001100050_0000001_0 (protein)
chain: SSSSDEEEESERLVERLEELLKEGDEERFKKVLQEATHFAFETRDSELFFLLAELLFRIESSSSS
B25: il2ra_site1_3nfp_normal_mot_HHH_b2_02342_000000249_0001_42_55_H_._HEEHE_0633_0001_0000400008_0000001_0 (protein)
chain: DLERDAKHVVKAVAEAARLPSVEVEVHNGTIHVEIEGDDEAARRAKEALELFARALGIPIEVEIE
B26: il2ra_site1_3nfp_sap_6_mot_HHH_b2_00128_000000255_0001_39_54_H_._HHH_b2_00233_0001_0001400017_0000001_0_0001_af2pred_0001_af2pred_1 (protein)
chain: SSSSNEVARRVRELLREALKLREEGNPEEARKLLEEAKELAEEANSPNARLMVRHALELINSSSS
B27: il2ra_site1_1z92_sap_22_mot_HHH_b1_04602_000000153_0001_1_19_H_._HHH_b1_00136_0001_0000300046_0000001_0_0001_af2pred_0001_af2pred_1 (protein)
chain: SSSSSDLEEIAKELVEELQREFNLDEAAKRDLEKFAEFLVKKGVSPELVEKNLRYVVRVTSSSSS
B28: il2ra_site1_2b5i_sap_9_mot_HHH_b1_00095_000000044_0001_1_14_H_._HHH_b1_03479_af2_0001_0000200014_0000001_0_0001_af2pred_0001_af2pred_1 (protein)
chain: SSSSSSDEKRRVRELLERANHVDDDEEVEKILEEAEEIAREANNPALERFVEAALRIASSSSSSS
B29: il2ra_site2_3nfp_sap_18_mot_HHH_b1_04032_000000208_0001_43_56_H_._HHH_b2_05228_0001_0000500021_0000001_0_0001_af2pred_0001_af2pred_swapped (protein)
chain: SSSSDYEEQVRELLERAEELRERGNPEEAERLLRRAASLAAEARDHELFAEVSEVLEKLGSSSSS
B30: il2ra_site1_2b5i_sap_9_mot_HHH_b2_06931_af2_000000221_0001_1_17_H_._HHH_b2_03102_af2_0001_0000200030_0000001_0_0001_af2pred_dldesign_0_af2pred (protein)
chain: SSSSSSSDKRALMARLDELFKAGKKEELEKLLKEAEEYAKKNKDKALLAYLKNIKELLSSSSSSS
B31: il2ra_site1_2b5i_sap_16_mot_HHH_b2_00318_000000002_0001_42_56_H_._HHH_b2_02760_0001_0000400035_0000001_1_0001_af2pred_dldesign_0_af2pred (protein)
chain: SSSSSSDFLEVLRRLEEALAAGRLEEARRLLEELREIAEKRKSPRLLKIVEMAREALESSSSSSS
B32: il2ra_site2_3nfp_normal_mot_HHH_b2_02437_000000052_0001_42_56_H_._HHH_b2_05748_0001_0000200030_0000001_0_af2pred_0001_af2pred_1 (protein)
chain: SSSSSEEVEEEVERLLEEAKRIEDEFEVFAVLADAAALAIENNNPELVRLVEKVSRELLGSSSSS
B33: il2ra_site2_3nfp_sap_15_mot_HHH_b2_08209_000000146_0001_1_18_H_._HHH_b1_00223_0001_0000100006_0000001_0_0001 (protein)
chain: SSSSDKAEEYLRIAEELIEEAREAGDEESARKMLEAAILMAEDLGDEEALEELRRILEELSSSSS
B34: il2ra_site1_2b5i_sap_11_mot_dbeaafda240321a0cf7c622ad65a8c3f_0001_000000010_0001_15_31_H_._42c349ed7ecc24df8868883d370ad53f_0001_0001_0001000058_0000001_0_0001_ … (protein)
chain: SSSSSDLKELVDALLERARELSKTDPELARRLLILARRIAKKAKDPELVAKVEAVRAELASSSSS
B35: il2ra_site2_3nfp_sap_11_mot_HHH_b2_07186_000000286_0001_42_55_H_._HHH_b1_07704_0001_0000200010_0000001_0_0001 (protein)
chain: SSSSSDTEEEVEELLEEAKRISDPEEVIQLLLEAAAAAAKHRDRELFAAVIAVAQKLIQSSSSSS
B36: il2ra_site2_2erj_sap_23_mot_HHH_b1_03425_000000133_0001_43_59_H_._HHH_b1_04908_0001_0000800014_0000001_0_0001_af2pred_0001_af2pred (protein)
chain: SEEEEEEERLRQLGVPPEVIELFRELLRKAKETGDPELREALLFARYALELGNPETAEAALKRAT
B37: il2ra_site1_2b5i_normal_mot_HHH_b1_01495_af2_000000272_0001_42_56_H_._HHH_b1_05097_af2_0001_0000100004_0000001_0_af2pred_0001_af2pred_1 (protein)
chain: SSSSDEEFQEVLELYLRASRAFLNGDPEKARELLEEALRLAEEINDENAVKDIEHMLELLNSSSS

Molecular target: il2ra, P01589
Assay: yeast display titration

Apparent Kd, inactive:
B1 no binding seen
B2 no binding seen
B3 no binding seen
B4 no binding seen
B5 no binding seen
B6 no binding seen
B7 no binding seen
B8 no binding seen
B9 no binding seen
B10 no binding seen
B11 no binding seen
B12 no binding seen
B13 no binding seen
B14 no binding seen
B15 no binding seen
B16 no binding seen
B17 no binding seen
B18 no binding seen
B19 no binding seen
B20 no binding seen
B21 no binding seen
B22 no binding seen
B23 no binding seen
B24 no binding seen
B25 no binding seen
B26 no binding seen
B27 no binding seen
B28 no binding seen
B29 no binding seen
B30 no binding seen
B31 no binding seen
B32 no binding seen
B33 no binding seen
B34 no binding seen
B35 no binding seen
B36 no binding seen
B37 no binding seen

For convenience, part of the list above:
Apparent Kd, inactive:
B5 no binding seen
B6 no binding seen
B7 no binding seen
B8 no binding seen
B9 no binding seen
B10 no binding seen
B11 no binding seen
B12 no binding seen
B13 no binding seen
B14 no binding seen
B15 no binding seen
